These are yes or no findings as the source states them, for the method shown. Binding seen in cells or lysates may run through a third protein. Here binding means that the protein was enriched with, or labelled near, the bait; the list need not be complete. For some assays here: Where a sequence is shown, tags or fusion partners need not be part of it. One block for each binder: values may come before it.
How the values were obtained:
[1] = target: FLAG-tagged HDAC1 in mouse embryonic fibroblasts (UniProt O09106); experiment: affinity purification with mass spectrometry; HDAC1-FLAG purified from mouse embryonic fibroblast (MEF) whole cell extract on M2-FLAG beads; control wildtype cells; label-free quantification
[2] = target: T1, V5-tagged version of the endogenous GSE1 protein (human) (UniProt Q14687); experiment: affinity purification with mass spectrometry; GSE1-V5 captured on V5-beads from HAP1 whole cell extract (Hunt buffer), untreated and 6 h etoposide treated cells; control HAP1 WT cells; on-bead digest, label-free quantification
T1 sequence: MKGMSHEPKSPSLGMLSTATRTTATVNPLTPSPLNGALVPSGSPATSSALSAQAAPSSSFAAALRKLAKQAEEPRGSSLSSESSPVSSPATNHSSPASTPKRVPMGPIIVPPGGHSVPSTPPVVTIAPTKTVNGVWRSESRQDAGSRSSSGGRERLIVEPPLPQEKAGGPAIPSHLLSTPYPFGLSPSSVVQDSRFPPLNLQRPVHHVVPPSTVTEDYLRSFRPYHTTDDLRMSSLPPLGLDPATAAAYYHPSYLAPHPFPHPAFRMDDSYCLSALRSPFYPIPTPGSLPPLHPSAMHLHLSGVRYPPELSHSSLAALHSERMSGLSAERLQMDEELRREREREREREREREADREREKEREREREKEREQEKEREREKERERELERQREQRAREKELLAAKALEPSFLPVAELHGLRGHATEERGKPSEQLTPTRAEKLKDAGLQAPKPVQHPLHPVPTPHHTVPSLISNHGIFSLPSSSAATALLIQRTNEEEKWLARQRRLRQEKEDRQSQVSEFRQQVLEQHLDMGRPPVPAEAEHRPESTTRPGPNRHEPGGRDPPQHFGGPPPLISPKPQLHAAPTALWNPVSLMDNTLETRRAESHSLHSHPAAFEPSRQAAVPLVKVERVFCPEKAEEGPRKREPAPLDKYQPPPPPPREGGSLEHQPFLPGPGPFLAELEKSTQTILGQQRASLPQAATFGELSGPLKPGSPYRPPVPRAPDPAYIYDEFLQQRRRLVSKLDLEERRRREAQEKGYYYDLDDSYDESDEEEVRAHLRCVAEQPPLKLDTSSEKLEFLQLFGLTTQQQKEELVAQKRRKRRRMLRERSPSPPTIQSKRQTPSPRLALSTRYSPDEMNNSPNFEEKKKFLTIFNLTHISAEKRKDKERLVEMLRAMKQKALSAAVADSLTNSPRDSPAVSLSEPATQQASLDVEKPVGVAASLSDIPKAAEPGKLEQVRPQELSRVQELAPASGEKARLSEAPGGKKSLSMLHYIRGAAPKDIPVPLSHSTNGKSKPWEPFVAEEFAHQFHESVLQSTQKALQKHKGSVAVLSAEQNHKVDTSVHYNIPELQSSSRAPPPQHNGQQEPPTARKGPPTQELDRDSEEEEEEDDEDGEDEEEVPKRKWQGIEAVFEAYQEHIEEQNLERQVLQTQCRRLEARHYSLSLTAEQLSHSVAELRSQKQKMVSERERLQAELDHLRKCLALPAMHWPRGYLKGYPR

Chains of the proteins cited; added tags and fusions are not shown.
UniProt O09106: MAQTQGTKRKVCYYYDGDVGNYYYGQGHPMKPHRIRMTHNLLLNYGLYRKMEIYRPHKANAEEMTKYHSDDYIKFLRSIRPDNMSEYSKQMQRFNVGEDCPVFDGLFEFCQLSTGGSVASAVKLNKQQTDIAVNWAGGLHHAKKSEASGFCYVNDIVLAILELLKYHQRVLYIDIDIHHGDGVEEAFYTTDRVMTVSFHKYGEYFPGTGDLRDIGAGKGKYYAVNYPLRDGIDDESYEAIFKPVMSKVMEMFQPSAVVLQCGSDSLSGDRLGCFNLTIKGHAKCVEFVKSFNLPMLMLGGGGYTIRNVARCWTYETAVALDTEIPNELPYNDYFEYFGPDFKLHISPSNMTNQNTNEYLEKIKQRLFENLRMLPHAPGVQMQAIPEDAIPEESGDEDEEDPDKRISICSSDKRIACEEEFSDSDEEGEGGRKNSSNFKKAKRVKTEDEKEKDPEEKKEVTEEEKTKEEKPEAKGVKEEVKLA

binding [1]: binds
B1: GSE1 (mouse) (protein, UniProt Q3U3C9 1-1213)
chain: MKGMSHEPKSPSIGMLSTATRTTATVNPLTPSPLNGALVPTGSPATSSTLSAQAAPSSSFAAALRKLAKQAEEPRGSSLSSESSPVSSPATNHSSPASTPKRVPMGPIIVPPGGHSVPSTPPVVTIAPTKTVNGVWRSESRQDSGSRGSSSGRERLLVEPPLAQEKAAGPAIPSHLLSTPYPFGLSPGSVVQDSRFQPLNLQRPVHHVVPPSTVTEDYLRSFRPYHTAEDLRMSSLPPLGLDPATAAAYYHPSYLAPHPFPHPAFRMDDSYCLSALRSPFYPIPTPGSLPPLHPSAMHLHLSGVRYPPELSHSSLAALHSERMSSLSAERLQMDEELRREREREREREREADREREKEREREQREKEREKELEREREKERERELERQREQRAREKELLAAKALEPTTFLPVAELHGLRGHSTEERPKPSEQLTPTRAEKLKDVGLQAPKPVQHPLHPVPAPHHTVPSLISSHGIFSLPGSSATTALLIQRTNEEEKWLARQRRLRQEKEDRQSQVSEFRQQVLEQHLDLGRPLVPTEAEHRPESTRPGTNRHEQGSREPPQHFGGPPPLISPKPQQHTVPTALWNPVSLMDNALETRRAESHSLHSHPTAFEPSRQAAVPLVKVERVYCSEKAEEPRKREATPLDKYQPPPPPPPPREAGSLEPQTFPHGPGPFLTELEKSTQTILGQQRPSLSQATSFGELSGPLKPGSPYCHPTARGPDPAYIYDEFLQQRRKLVSKLDLEERRRREAQEKGYYYDLDDSYDESDEEEVRAHLRCVAEQPPLKLDTSSEKLEFLQLFGLTTQQQKEELVAQKRRKRRRMLRERSPSPPAVQCKRQTPSPRLALSTRYSPDEMNNSPNFEEKRKFLTFFNLTHISAEKRKDKERLVEMLRAMKQRALSAADSVTNSSRDSPPVSLSEPATQPAPLETDQPVGVPASLSDVPKTTETGRLEQLRPQELLRVQEPAPPSGEKARLSEAPGGKKSLSMLHYLRGAAPKDIPVPLSHSINGKSKPWEPFVAEEFAHQFHESVLQSTQKALQKHKGNSALLSAEQSHKVDTAIHYNIPELQSSSRVPLPQHNGQQEPPMGRKGPPMQEADQDSEEDSEEDSEEEAEEAPRRQWQGIEAIFEAYQEHIEEQNLERQVLQTQCRRLEAQNYSLSLTAEQLSHSMAELRSQKQKMVSERERLQAELDHLRKCLALPTMHWPRGYFKGYPR

binding [2]: binds
B2: SLU7 (protein, UniProt O95391 1-586)
chain: MSATVVDAVNAAPLSGSKEMSLEEPKKMTREDWRKKKELEEQRKLGNAPAEVDEEGKDINPHIPQYISSVPWYIDPSKRPTLKHQRPQPEKQKQFSSSGEWYKRGVKENSIITKYRKGACENCGAMTHKKKDCFERPRRVGAKFTGTNIAPDEHVQPQLMFDYDGKRDRWNGYNPEEHMKIVEEYAKVDLAKRTLKAQKLQEELASGKLVEQANSPKHQWGEEEPNSQMEKDHNSEDEDEDKYADDIDMPGQNFDSKRRITVRNLRIREDIAKYLRNLDPNSAYYDPKTRAMRENPYANAGKNPDEVSYAGDNFVRYTGDTISMAQTQLFAWEAYDKGSEVHLQADPTKLELLYKSFKVKKEDFKEQQKESILEKYGGQEHLDAPPAELLLAQTEDYVEYSRHGTVIKGQERAVACSKYEEDVKIHNHTHIWGSYWKEGRWGYKCCHSFFKYSYCTGEAGKEIVNSEECIINEITGEESVKKPQTLMELHQEKLKEEKKKKKKKKKKHRKSSSDSDDEEKKHEKLKKALNAEEARLLHVKETMQIDERKRPYNSMYETREPTEEEMEAYRMKRQRPDDPMASFLGQ

Reference: PMC10681733
